Test results: PubChem BioAssay AID1347076 (National Center for Advancing Translational Sciences (NCATS), 2019)
The campaign covered roughly 400,000 compounds. About 13,000 (3.2%) were called active. Inconclusive results, whose numbers are uncertain, are shown with a selection of clear calls. Calls come from the whole dose curve; as a rule, active = well fitted cell-killing curve with a large enough effect; inconclusive = small, poorly fitted or top-dose-only effect, or effect the other way; inactive = flat fitted curve, though single readings scatter. A potency beside an inconclusive call is a rough fit, not a confirmed value.

Experiment: qHTS assay for MDR1-selective chemotherapeutics: Primary screen using the drug-selected MDR subline cells KB-V1; note: nearly all actives have a fitted effect of over 60% in size
Details: KB-V1 MDR cells viability, CellTiter-Glo, 72 h; activity change, negative = cytotoxicity: at 46.1 µM (top of the series)
In short: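 Cytotoxicity toward P-gp-expressing KB-V1 cells was determined as loss of CellTiter-Glo luminescence after 72 h at 37 degrees C. Compounds were tested in quantitative HTS format across a concentration range, with curves fitted to normalized data.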
% is set by controls: 0 for no effect and ±100 for the full control effect; potency is the fitted concentration of half-maximal effect.

Compound | Potency | activity change, negative = cytotoxicity
CC1CCCC(NC(=O)COC(=O)c2ccc(N(C)C)cc2)C1C (stereo not drawn) | inconclusive: 35.5 µM [cytotoxic, single point] | 
COC(=O)c1ccc(CSc2cc(C)c3cccc(C)c3n2)o1 | inconclusive: 20.6 µM [rising, partial curve, poor fit] | 
CCOc1ccc(/C(O)=C2/C(=O)C(=O)N(c3ccccn3)C2c2ccc(F)cc2)c(C)c1 (stereo not drawn) | inconclusive: 29.1 µM [cytotoxic, single point] | 
O=C(NC1CCCC1)C1c2ccccc2C(=O)N1C1CCCCC1 (stereo not drawn) | inconclusive: 11.6 µM [cytotoxic, partial curve, poor fit] | 
Nc1nc(CN2CCN(c3ccccc3F)CC2)nc(Nc2ccc3c(c2)OCCO3)n1 | active: 9.2 µM | 
COc1ccc(OC)c(N(/C(N)=N/c2nc(C)cc(C)n2)S(=O)(=O)c2ccc(NC(C)=O)cc2)c1 | inconclusive: 2.91 µM [cytotoxic, partial curve, poor fit] | 
Cc1cc([N+](=O)[O-])nn1Cc1ccc(C(=O)N/N=C/c2ccc(O)cc2O)cc1 | inconclusive: 11.6 µM [cytotoxic, partial curve] | 
CSc1ccc(C(=S)N2CCN(Cc3ccccc3)CC2)cc1 | inconclusive: 35.5 µM [cytotoxic, single point] | 
COc1ccc(OCCCC(=O)OCC(=O)N2CCN(S(=O)(=O)c3ccc(C)cc3C)CC2)cc1 |  | inactive: -9.91%
COc1ccc(/C=N/NC(=O)c2cc3c(OC)ccc(OC)c3[nH]2)cc1O | active: 9.2 µM | 
O=S(=O)(c1cccs1)N1CCCc2ccccc21 | inconclusive: 29.1 µM [cytotoxic, single point] | 
COCCCNC(=O)C1CCN(c2nc3ccc(Cl)cc3[nH]2)CC1 | inconclusive: 29.1 µM [rising, single point] | 
CCSC1(SCC)N=C(N)C2(C#N)C(c3ccccc3)NC(C)=C(C)C12C#N (stereo not drawn) | inconclusive: 8.2 µM [rising, partial curve, poor fit] | 
CN1C(=O)c2ccccc2Cc2c(NCc3ccccc3)ncnc21 | inconclusive: 18.4 µM [cytotoxic, partial curve] | 
CC(C)CC(=O)NC(Nc1ccccc1F)C(Cl)(Cl)Cl (stereo not drawn) | inconclusive: 10.3 µM [cytotoxic, partial curve, poor fit] | 
Cc1ccc(C(=O)N/N=C\c2cc(Br)c(Br)o2)cn1 | inconclusive: 18.4 µM [cytotoxic, single point] | 
CCOC(=O)N1CCN(Cc2nc(N)nc(Nc3ccc(Oc4ccccc4)cc3)n2)CC1 | active: 13 µM | 
CCOC(=O)Nc1ccc2c(COC(=O)C(NS(=O)(=O)c3ccc(Cl)cc3)C(C)O)cc(=O)oc2c1 (stereo not drawn) |  | inactive: 6.63%
COc1cc2[nH]c(=S)n(CCCN3CCOCC3)c(=O)c2cc1OC |  | inconclusive: -32.3%
COc1ccc2nc(SCCOC(=O)Nc3ccc(Cl)cc3)nc(C)c2c1 | active: 14.6 µM | 
COC(=O)C(C)Oc1ccc(Cl)c(CN2OCC(C)(C)C2=O)c1 (stereo not drawn) | inconclusive: 2.31 µM [rising, partial curve, poor fit] | 
O=C(O)c1ccc2c(c1)-c1nc3ccccc3n1C2=O | inconclusive: 16.4 µM [rising, partial curve, poor fit] | 
Cc1c(CN(C)Cc2cn(C)nc2-c2ccccc2F)[nH]c2ccccc12 |  | inactive: -0.0391%

Part of the list above, in CSV form:
Compound,Potency,"activity change, negative = cytotoxicity"
Cc1cc([N+](=O)[O-])nn1Cc1ccc(C(=O)N/N=C/c2ccc(O)cc2O)cc1,"inconclusive: 11.6 µM [cytotoxic, partial curve]",
CSc1ccc(C(=S)N2CCN(Cc3ccccc3)CC2)cc1,"inconclusive: 35.5 µM [cytotoxic, single point]",
CCOC(=O)Nc1ccc2c(COC(=O)C(NS(=O)(=O)c3ccc(Cl)cc3)C(C)O)cc(=O)oc2c1 (stereo not drawn),,inactive: 6.63%

Further structures follow:

Compound | Potency | activity change, negative = cytotoxicity
CCc1ccc2occ(CC(=O)Nc3ccc(C)c(C)c3)c2c1 |  | inconclusive: -39.1% [cytotoxic]
C=CCc1cc(C=O)cc(OCC)c1OCc1ccc(Cl)cc1 | inconclusive: 18.4 µM [cytotoxic, single point] | 
Clc1ccc(SCc2cn3ccsc3n2)cc1 |  | inactive: -16%
Cc1ccc(NC(=O)CCC(=O)c2cccs2)c(O)c1 | inconclusive: 23.1 µM [rising, single point] | 
O=C(CN1C(=O)CSc2ccc(S(=O)(=O)N3CCCC3)cc21)NCc1ccc(F)cc1Cl |  | inactive: 1.61%
O=S(=O)(c1cccs1)N1CCN(CC(O)COc2cccc(Br)c2)CC1 (stereo not drawn) | active: 14.6 µM | 
O=C(NCC1CC1)c1ccc(Nc2nc3ccc(Br)cc3[nH]2)cc1 | inconclusive: 2.59 µM [rising, full curve] | 
O=C(c1cc2cc3ccc(Cl)cc3nc2o1)N1CCN(c2cccc(Cl)c2)CC1 | inconclusive: 9.2 µM [rising, partial curve] | 
CN(C)CCC1c2ccc(Cl)cc2CCc2cccnc21 (stereo not drawn) (tested in a mixture with another compound) | inconclusive: 14.6 µM [cytotoxic, partial curve] | 
c1cncc(-c2nc(N3CCCCCC3)c3ccccc3n2)c1 | active: 4.11 µM | 
Cc1ccccc1C(=O)Nc1cccc(-c2cn3ccccc3n2)c1 | inconclusive: 20.6 µM [cytotoxic, single point] | 
Cc1cccc(NC(=O)c2cnc3n(c2=O)CCS3)c1 | inconclusive: 11.6 µM [cytotoxic, partial curve] | 
O=C(N/N=C/c1ccc(-c2ccccc2Cl)o1)c1ccccc1 | inconclusive: 20.6 µM [cytotoxic, single point] | 
O=C(Cc1ccc(Cl)c(Cl)c1)Nc1cccnc1 | inconclusive: 7.31 µM [cytotoxic, partial curve] | 
O=C(NC1CCCC1)c1cc(COc2ccc3ncccc3c2)on1 | inconclusive: 20.6 µM [cytotoxic, single point] | 
CCOC(=O)N1CCN(C(=O)CN(c2cccc(C)c2)S(=O)(=O)c2ccc(C)cc2)CC1 | inconclusive: 20.6 µM [cytotoxic, partial curve] | 
O=C(NCc1ccccc1Cl)c1ccc(-n2cnc3cccnc32)cc1 | inconclusive: 7.31 µM [cytotoxic, partial curve] | 
CCOC(=O)c1ccc(NC(=S)N2CCSC2c2ccc(Cl)cc2)cc1 (stereo not drawn) | inconclusive: 18.4 µM [cytotoxic, single point] | 
COc1ccc(N2CCN(Cc3nc4c(c(=O)n(C)c(=O)n4C)n3CC(C)=O)CC2)cc1 | inconclusive: 32.6 µM [cytotoxic, single point] | 
O=C(COc1ccc(Br)cc1)Nc1nnc(C2CC2)s1 | inconclusive: 20.6 µM [rising, single point] | 
O=C1NC[C@H](CC2CCCCC2)N(CCc2cccc3ccccc23)C1=O | inconclusive: 18.4 µM [cytotoxic, partial curve] | 
COC(=O)[C@@H]1[C@@H](C#N)C2(c3ccccc3-c3ccccc32)N(c2ccc(Cl)cc2)N1C#N | inconclusive: 32.6 µM [cytotoxic, single point] | 
COc1ccc(C(=O)NCC(=O)NCC2(N(C)C)CCCCC2)cc1OC |  | inactive: 15.5%

Compound | Potency | activity change, negative = cytotoxicity
Cc1cn2c(=O)c(S(=O)(=O)NCc3ccc(F)cc3)c(C)nc2s1 |  | inactive: 15.5%
Cc1nn(-c2ccc(N3CCCCC3)nn2)c(C)c1CCC(=O)Nc1ccc(F)c(F)c1 | inconclusive: 29.1 µM [cytotoxic, single point] | 
C#CCN(C(=O)c1cc(COc2cccc(C(F)(F)F)c2)on1)C1CCCCC1 | inconclusive: 20.6 µM [cytotoxic, single point] | 
O=C(CSc1nnc(Cc2ccccc2)o1)N1CCCC1 |  | inactive: 12.2%
Cc1ccc(CNC(=O)CSCc2nc(-c3cccc(C)c3)oc2C)cc1 |  | inactive: -5.6%
CCN1C=C(Cc2ccccc2C)C2=C(C1)C(c1ccccc1C)C(C#N)=C(N)O2 (stereo not drawn) | active: 20.6 µM | 
CCOC(=O)[C@]12CCC=C1N(Cc1ccco1)C(=O)[C@H](CC(=O)NCc1ccc(C)o1)C2 |  | inactive: -19.4%
O=C(Nc1ccc(Cl)cn1)c1cccnc1 | inconclusive: 18.4 µM [cytotoxic, single point] | 
Cc1cccc(N2CC3=C(C2=O)C(c2ccccc2)NC(=O)N3C)c1 (stereo not drawn) | inconclusive: 18.4 µM [cytotoxic, partial curve] | 
C/C(=N\NC(=O)c1ccc(CN2CCc3ccccc3C2)cc1)c1ccccc1O | inconclusive: 2.31 µM [cytotoxic, full curve, poor fit] | 
CCc1ccc(NC(=O)CSc2nc3cc(C(=O)OC)ccc3c(=O)n2Cc2ccco2)cc1 |  | inactive: 16.6%
O=C(NCCS(=O)(=O)N1CCN(c2ccccc2F)CC1)c1cccs1 | inconclusive: 14.6 µM [cytotoxic, partial curve, poor fit] | 
CC(C)CN1C(=O)c2ccc(C(=O)Nc3ccccc3C(=O)O)cc2C1=O |  | inconclusive: 33.5%
CCOCCCNC(=S)N1CCN(c2nc(-c3ccccc3)cs2)CC1 | inconclusive: 29.1 µM [cytotoxic, single point] | 
O=C(Nc1cccc(-c2cccc(Cl)c2)c1)C1CCN(Cc2ccc(CO)o2)CC1 |  | inactive: -26.9%
CC(C)N1CCN(S(=O)(=O)c2ccc3ccccc3c2)CC1 |  | inactive: -8.39%
CC(C)NC(=O)C(=O)c1cn(C)c2ccccc12 |  | inactive: -10.4%
Cc1ccn2c(Nc3ccc4c(c3)OCCO4)c(-c3ccc(N(C)C)cc3)nc2c1 | inconclusive: 29.1 µM [rising, single point] | 
O=C(NCCS(=O)(=O)N1CCN(c2ccccc2F)CC1)C1CC(=O)N(c2ccc(F)cc2)C1 (stereo not drawn) | inconclusive: 20.6 µM [rising, partial curve, poor fit] | 
CCCn1nnc(NC(=S)NC(=O)/C=C/c2ccc(Cl)cc2)n1 |  | inactive: -5.78%
CN1CCN(C(=O)C2(NC(=O)Nc3ccccc3Cl)CCCCC2)CC1 | inconclusive: 3.26 µM [rising, partial curve, poor fit] | 
COC(=O)c1[nH]c2ccccc2c1NC(=O)CN1CCN(Cc2ccc3c(c2)OCO3)CC1 | inconclusive: 18.4 µM [cytotoxic, partial curve] | 

3 structures from above, ordered by SMILES length, ascending:
Compound | Potency | activity change, negative = cytotoxicity
O=C(Nc1ccc(Cl)cn1)c1cccnc1 | inconclusive: 18.4 µM [cytotoxic, single point] | 
C/C(=N\NC(=O)c1ccc(CN2CCc3ccccc3C2)cc1)c1ccccc1O | inconclusive: 2.31 µM [cytotoxic, full curve, poor fit] | 
CCSC1(SCC)N=C(N)C2(C#N)C(c3ccccc3)NC(C)=C(C)C12C#N (stereo not drawn) | inconclusive: 8.2 µM [rising, partial curve, poor fit] | 
